# Source: the supplement of paper PMC9135407
# Values joined by “and” are separate entries in the source; they are usually repeats but may differ in a detail not shown here. Equal values may be shown once. ± gives the standard deviation of the averaged measurements. Some of the results follow. Part of the spread comes from offsets between plates or batches.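 Primary human stellate myofibroblasts activated in culture; inactivation shown by regained lipid droplets. Readout: fraction of Hoechst-counted cells exceeding a per-plate Bodipy threshold, duplicate wells, each plate with DMSO negative and nortriptyline positive controls. Hits: control-normalized score beyond the plate's top-tenth-percentile nortriptyline wells, or among its three best wells. Final well concentrations unstated.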
# System: primary human hepatic stellate cells (donor 1)
# Test: percent Bodipy-positive cells; higher = more lipid droplet accumulation
# Settings: 48 h
# [1] = library stock concentration: 10 mM
# [2] = library stock concentration: 80 uM
# [3] = library stock concentration: 400 uM
# [4] = library stock concentration: 2 mM
# [5] = library stock concentration: 3.33 mM
# [6] = library stock concentration: 1 mM
smiles,measurement,setting,value
Cc1cc(C(=O)O)sc1C(N)C(=O)O (stereo not given),percent Bodipy-positive cells,[1],9.54 ± 1.3%
CN1C(=O)C(Cc2c[nH]c3ccccc23)NC1=S (stereo not given) [Necrostatin-1],percent Bodipy-positive cells,[2],5.7 ± 0.61%
same,percent Bodipy-positive cells,[3],7.74 ± 0.94%
same,percent Bodipy-positive cells,[4],5.61 ± 1.8%
O=S(=O)(O)Oc1ccc(C(c2ccc(OS(=O)(=O)O)cc2)c2ccccn2)cc1 [Sodium Picosulfate],percent Bodipy-positive cells,[5],11.4 ± 6.7%
same,percent Bodipy-positive cells,[1],24.7 ± 13%
Nc1nc(OCC2CCCCC2)c2[nH]cnc2n1,percent Bodipy-positive cells,[1],33.8 ± 6.2%
CC=CC1=C(C(=O)O)N2C(=O)[C@@H](NC(=O)[C@H](N)c3ccc(O)cc3)[C@H]2SC1 [Cefprozil],percent Bodipy-positive cells,library stock concentration: 5.1 mM,11 ± 7.8%
same,percent Bodipy-positive cells,[1],19.3 ± 3.8%
CCCCC/C=C\C/C=C\C/C=C\CCCCCCC(=O)O [Dihomo-.gamma.-Linolenic Acid],percent Bodipy-positive cells,[6],9.34 ± 0.44%
CCCCC/C=C\C/C=C\C/C=C\CCCCCCC(=O)O [Dihomo-gamma-linolenic acid],percent Bodipy-positive cells,[6],8.78 ± 5.7%
CCN(CC)CCOc1ccc(Nc2ncc3cc(-c4c(Cl)cccc4Cl)c(=O)n(C)c3n2)cc1,percent Bodipy-positive cells,[1],98.67 ± 0.16%
CCn1c(-c2nonc2N)nc2c(C#CC(C)(C)O)ncc(OC[C@H]3CCCNC3)c21,percent Bodipy-positive cells,[2],10.2 ± 3.6%
same,percent Bodipy-positive cells,[3],18.6% and 16.5%
same,percent Bodipy-positive cells,[4],12.5% and 21.5%
same,percent Bodipy-positive cells,[5],36.5 ± 4.6%
O=C1c2ccccc2C(=O)C1c1ccc(Br)cc1 [Bromindione],percent Bodipy-positive cells,library stock concentration: 6.6 mM,14.2 ± 4.5%
NC(=O)CC[C@H](N)C(=O)O [L-Glutamine],percent Bodipy-positive cells,[1],45.7 ± 5.2%
NC(=O)CC[C@H](N)C(=O)O,percent Bodipy-positive cells,[1],41.1 ± 0.86%
CC(C)=CCC/C(C)=C/CC/C(C)=C/CC[C@]1(C)CCc2cc(O)c(C)c(C)c2O1 [.gamma.-Tocotrienol],percent Bodipy-positive cells,[6],10.2 ± 1.5%
O=C1C(Cl)=C(NCCN2CCOCC2)C(=O)c2ncccc21,percent Bodipy-positive cells,[1],68.6 ± 0.77%
COc1cc(C[C@H]2COC(=O)[C@@H]2Cc2ccc(O)c(OC)c2)ccc1O [Matairesinol],percent Bodipy-positive cells,[6],12.9 ± 6.8%
CCCCC/C=C\C/C=C\C/C=C\C/C=C\CCCC(=O)O[C@@H](CO)COCCCCCCCCCCCCCCCC [1-Hexadecyl-2-arachidonoyl-glycerol],percent Bodipy-positive cells,[6],4.84 ± 2.8%
NC(=O)Nc1cc(-c2cccc(F)c2)sc1C(=O)N[C@H]1CCCNC1,percent Bodipy-positive cells,[5],91.5 ± 2%
O=c1oc2cc(O)ccc2s1 [Tioxolone],percent Bodipy-positive cells,[5],12.3 ± 5%
COc1cc2ncnc(Nc3cccc(Cl)c3)c2cc1OC,percent Bodipy-positive cells,[2],6.737 ± 0.044%
same,percent Bodipy-positive cells,[3],7.04 ± 1.9%
same,percent Bodipy-positive cells,[4],8.32 ± 2.3%
same,percent Bodipy-positive cells,[5],10.5 ± 2.9%
same,percent Bodipy-positive cells,[1],66.7 ± 10%
same,percent Bodipy-positive cells,library stock concentration: 14.2 mM,52.8 ± 3.2%
COc1cc2ncnc(Nc3cccc(Cl)c3)c2cc1OC [AG-1478 (Tyrphostin AG-1478)],percent Bodipy-positive cells,[5],8.89 ± 1.1%
CCCCc1ccc2[nH]c(NC(=O)OC)nc2c1 [Parbendazole],percent Bodipy-positive cells,,20.7 ± 3.4%
"CCCCCC=CCC=CCCCCCCCCCC(=O)O [11(Z),14(Z)-Eicosadienoic Acid]",percent Bodipy-positive cells,[6],9 ± 2.5%
Nc1ccccc1NC(=O)c1ccc(CNc2nccc(-c3cccnc3)n2)cc1 [Mocetinostat (MGCD0103)],percent Bodipy-positive cells,[5],69.5 ± 3.4%

# An excerpt of these results, with bars between the fields:
smiles | measurement | setting | value
O=c1oc2cc(O)ccc2s1 [Tioxolone] | percent Bodipy-positive cells | [5] | 12.3 ± 5%
COc1cc2ncnc(Nc3cccc(Cl)c3)c2cc1OC | percent Bodipy-positive cells | [2] | 6.737 ± 0.044%
same | percent Bodipy-positive cells | [3] | 7.04 ± 1.9%
same | percent Bodipy-positive cells | [4] | 8.32 ± 2.3%
same | percent Bodipy-positive cells | [5] | 10.5 ± 2.9%
same | percent Bodipy-positive cells | [1] | 66.7 ± 10%
same | percent Bodipy-positive cells | library stock concentration: 14.2 mM | 52.8 ± 3.2%
